Here are results for two molecules from paper PMC8719587.

No constants are given. Whether binding was seen depends on the method and setting. Binding calls can cover weak binding; strength is not graded here. Sequences can lack the tags named with a protein. For part of these data: Binding seen in cells or lysates may run through a third protein.

Assay [1] addresses GmLMM1-HA (HA-labeled GmLMM1 in transgenic plants) (soybean (Glycine max)). In words: co-IP; protein extract of 7-day GmLMM1-HA transgenic plants in NEBT buffer incubated with 1 μM RALF peptide from E. coli; precipitated with HA beads overnight at 4°C; immunoblot with anti-HA and anti-His; only the binder purified. (In general: In western blotting, separated proteins are transferred to a membrane and probed.)

The target in assay [2] is GST-GmLMM1^ECD fusion protein (GmLMM1 extracellular domain, residues 27 to 452) (soybean (Glycine max)) (UniProt I1LWU2). In words: pull-down; GST-GmLMM1^ECD mixed with RALF and glutathione agarose beads in GST-binding buffer (20 mM HEPES, 40 mM KCl, 1 mM EDTA, pH 7.5), 4°C overnight; eluted with glutathione; immunoblot with anti-GST and anti-His; both purified.

With ATRRYISYGALRRNTIPCSRRGASYYNCRRGAQANPYSRGCSAITRCRRS (ligand, UniProt Q9LUS7 89-138) [AtRALF23 peptide, bioactive form (amino acids 89-138), with 6 x His-MBP tag], the binding entry in assay [1] and in assay [2] was “binds” throughout. As for ATTKYISYQSLKRNSVPCSRRGASYYNCQNGAQANPYSRGCSKIARCRS (ligand, UniProt Q9SRY3 72-120) [AtRALF1 peptide, bioactive form (amino acids 72-120), with 6 x His-MBP tag], in assay [2], the binding result was “no binding”.
